{
  "source": "patent US20090098652A1",
  "about": "“SELF ASSEMBLING PEPTIDE SYSTEMS AND METHODS” (Northwestern University, priority 2007, published 2009)",
  "key": {"[1]": {"tested_on": "DNA", "test": "DNA footprinting (protection from DNase)", "format": "binding"}, "[2]": {"tested_on": "plasmid DNA", "test": "Electrophoretic mobility shift assay (EMSA)", "format": "binding", "conditions": "nicked, supercoiled or nonsupercoiled forms"}},
  "note": "Part of at least one peptide drawing is inferred or uncertain, most often the ends. Where a SMILES comes first, the peptide text is derived from it. The star is where a group is joined. Palmitoyl = CCCCCCCCCCCCCCCC(=O)*",
  "data": [
    {"smiles": "CCCCCCCCCCCCCCCC(=O)NCCCC[C@H](NC(=O)[C@H](C)NC(=O)[C@H](C)NC(=O)[C@H](C)NC(=O)[C@H](CC(C)C)NC(=O)[C@H](CC(C)C)NC(=O)[C@H](CC(C)C)NC(=O)[C@H](CCCCN)NC(=O)[C@H](CC(N)=O)NC(=O)[C@@H](NC(=O)[C@H](C)NC(=O)[C@H](CO)NC(=O)[C@H](CCC(N)=O)NC(=O)[C@H](Cc1ccc(O)cc1)NC(=O)[C@@H](NC(=O)CNC(=O)[C@H](CC(C)C)NC(=O)[C@H](CCCNC(=N)N)NC(=O)[C@H](CCCCN)NC(=O)[C@H](C)NC(=O)[C@@H](NC(=O)[C@H](CCCCN)NC(=O)[C@@H](N)CCCNC(=N)N)[C@@H](C)O)C(C)C)[C@@H](C)CC)C(=O)O", "note": "[DNA-binding PA] (H-RKTAKRLGVYQSAINKLLLAAAK(Palmitoyl)-OH)", "values": [
      {"measurement": "binding preference to a sequence of base pairs", "setting": "[1]", "value": "no binding preference"},
      {"measurement": "preference for binding to plasmid forms", "setting": "[2]", "value": "There did not seem to be a preference"}
    ]}
  ]
}
